Some of the results follow.
Compound: CC1Cc2ccccc2N1C(=O)C1CCCN(C1)C(=O)CCl (mixture of isomers) [TRIM25 ligand 11 (diastereomer mixture)]
Experiment: probe-labelled cysteine peptide fold change vs DMSO (competition) (log2 fold change); higher = less target engagement (more negative = stronger competition)
Conditions: THP-1, incubation time: 4 h
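Also: competitive chemoproteomic profiling in live THP-1 cells with an iodoacetamide desthiobiotin (IA-DTB) probe, comparing probe-labelled peptide intensities in compound-treated cells against DMSO-treated controls.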

By UniProt entry, the sequences of proteins in these tests, tags left out. Where a name states a change or a piece, a line headed by the entry shows the natural chain unless it says otherwise.
UniProt O75643, whole entry, looked up: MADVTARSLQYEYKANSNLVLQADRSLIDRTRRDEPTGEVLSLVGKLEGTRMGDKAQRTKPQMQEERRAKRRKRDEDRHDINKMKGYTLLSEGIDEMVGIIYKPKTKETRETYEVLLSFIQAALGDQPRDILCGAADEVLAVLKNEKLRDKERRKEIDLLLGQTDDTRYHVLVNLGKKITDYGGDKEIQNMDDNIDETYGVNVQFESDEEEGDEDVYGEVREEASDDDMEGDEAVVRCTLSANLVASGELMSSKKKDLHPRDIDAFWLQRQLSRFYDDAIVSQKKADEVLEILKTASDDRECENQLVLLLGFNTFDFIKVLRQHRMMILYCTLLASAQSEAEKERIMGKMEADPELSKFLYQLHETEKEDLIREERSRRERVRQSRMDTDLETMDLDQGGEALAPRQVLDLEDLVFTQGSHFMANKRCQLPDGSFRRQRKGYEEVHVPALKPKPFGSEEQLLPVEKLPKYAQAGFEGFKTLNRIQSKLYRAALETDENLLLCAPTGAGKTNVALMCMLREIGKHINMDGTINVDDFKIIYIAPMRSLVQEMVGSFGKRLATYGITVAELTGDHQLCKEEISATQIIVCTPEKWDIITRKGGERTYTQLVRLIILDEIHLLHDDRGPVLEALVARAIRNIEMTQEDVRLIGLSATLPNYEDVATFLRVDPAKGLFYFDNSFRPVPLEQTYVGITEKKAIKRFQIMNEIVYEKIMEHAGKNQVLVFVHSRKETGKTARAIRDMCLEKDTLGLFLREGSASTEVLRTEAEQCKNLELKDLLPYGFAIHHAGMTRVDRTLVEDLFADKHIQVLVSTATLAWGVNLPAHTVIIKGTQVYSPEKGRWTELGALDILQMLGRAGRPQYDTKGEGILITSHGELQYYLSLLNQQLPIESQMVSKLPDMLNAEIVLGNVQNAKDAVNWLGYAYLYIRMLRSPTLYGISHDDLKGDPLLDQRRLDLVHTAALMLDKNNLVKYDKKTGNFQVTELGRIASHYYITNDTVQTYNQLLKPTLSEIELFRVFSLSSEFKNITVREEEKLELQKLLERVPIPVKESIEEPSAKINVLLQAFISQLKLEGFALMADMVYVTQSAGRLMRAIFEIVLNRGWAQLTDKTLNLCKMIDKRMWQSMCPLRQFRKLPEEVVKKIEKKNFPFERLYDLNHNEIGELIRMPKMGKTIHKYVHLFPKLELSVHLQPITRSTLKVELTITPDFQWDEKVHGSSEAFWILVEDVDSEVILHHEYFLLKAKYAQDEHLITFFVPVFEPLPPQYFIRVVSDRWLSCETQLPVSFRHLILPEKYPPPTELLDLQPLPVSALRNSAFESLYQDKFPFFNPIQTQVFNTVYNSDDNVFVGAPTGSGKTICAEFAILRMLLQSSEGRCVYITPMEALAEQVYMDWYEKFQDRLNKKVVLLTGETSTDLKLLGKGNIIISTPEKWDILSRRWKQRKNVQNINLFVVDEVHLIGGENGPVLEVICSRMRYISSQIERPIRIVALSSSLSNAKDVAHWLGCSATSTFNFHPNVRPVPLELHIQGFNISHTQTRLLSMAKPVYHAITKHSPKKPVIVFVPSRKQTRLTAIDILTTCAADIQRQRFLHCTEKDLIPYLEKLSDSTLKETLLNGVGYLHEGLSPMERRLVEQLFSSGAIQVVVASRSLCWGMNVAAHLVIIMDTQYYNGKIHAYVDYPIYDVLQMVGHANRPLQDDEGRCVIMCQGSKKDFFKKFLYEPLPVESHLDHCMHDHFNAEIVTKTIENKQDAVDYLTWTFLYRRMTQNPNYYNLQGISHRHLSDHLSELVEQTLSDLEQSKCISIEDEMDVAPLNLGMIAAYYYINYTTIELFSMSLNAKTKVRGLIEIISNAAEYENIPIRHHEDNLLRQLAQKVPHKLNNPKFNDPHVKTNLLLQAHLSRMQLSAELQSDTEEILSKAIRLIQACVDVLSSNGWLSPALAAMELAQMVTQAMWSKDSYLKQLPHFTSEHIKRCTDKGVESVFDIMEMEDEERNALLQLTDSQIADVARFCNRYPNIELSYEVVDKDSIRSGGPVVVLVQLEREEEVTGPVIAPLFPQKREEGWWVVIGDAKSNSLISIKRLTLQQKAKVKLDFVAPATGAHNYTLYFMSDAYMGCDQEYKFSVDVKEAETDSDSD
UniProt Q9NTJ3, whole entry, looked up: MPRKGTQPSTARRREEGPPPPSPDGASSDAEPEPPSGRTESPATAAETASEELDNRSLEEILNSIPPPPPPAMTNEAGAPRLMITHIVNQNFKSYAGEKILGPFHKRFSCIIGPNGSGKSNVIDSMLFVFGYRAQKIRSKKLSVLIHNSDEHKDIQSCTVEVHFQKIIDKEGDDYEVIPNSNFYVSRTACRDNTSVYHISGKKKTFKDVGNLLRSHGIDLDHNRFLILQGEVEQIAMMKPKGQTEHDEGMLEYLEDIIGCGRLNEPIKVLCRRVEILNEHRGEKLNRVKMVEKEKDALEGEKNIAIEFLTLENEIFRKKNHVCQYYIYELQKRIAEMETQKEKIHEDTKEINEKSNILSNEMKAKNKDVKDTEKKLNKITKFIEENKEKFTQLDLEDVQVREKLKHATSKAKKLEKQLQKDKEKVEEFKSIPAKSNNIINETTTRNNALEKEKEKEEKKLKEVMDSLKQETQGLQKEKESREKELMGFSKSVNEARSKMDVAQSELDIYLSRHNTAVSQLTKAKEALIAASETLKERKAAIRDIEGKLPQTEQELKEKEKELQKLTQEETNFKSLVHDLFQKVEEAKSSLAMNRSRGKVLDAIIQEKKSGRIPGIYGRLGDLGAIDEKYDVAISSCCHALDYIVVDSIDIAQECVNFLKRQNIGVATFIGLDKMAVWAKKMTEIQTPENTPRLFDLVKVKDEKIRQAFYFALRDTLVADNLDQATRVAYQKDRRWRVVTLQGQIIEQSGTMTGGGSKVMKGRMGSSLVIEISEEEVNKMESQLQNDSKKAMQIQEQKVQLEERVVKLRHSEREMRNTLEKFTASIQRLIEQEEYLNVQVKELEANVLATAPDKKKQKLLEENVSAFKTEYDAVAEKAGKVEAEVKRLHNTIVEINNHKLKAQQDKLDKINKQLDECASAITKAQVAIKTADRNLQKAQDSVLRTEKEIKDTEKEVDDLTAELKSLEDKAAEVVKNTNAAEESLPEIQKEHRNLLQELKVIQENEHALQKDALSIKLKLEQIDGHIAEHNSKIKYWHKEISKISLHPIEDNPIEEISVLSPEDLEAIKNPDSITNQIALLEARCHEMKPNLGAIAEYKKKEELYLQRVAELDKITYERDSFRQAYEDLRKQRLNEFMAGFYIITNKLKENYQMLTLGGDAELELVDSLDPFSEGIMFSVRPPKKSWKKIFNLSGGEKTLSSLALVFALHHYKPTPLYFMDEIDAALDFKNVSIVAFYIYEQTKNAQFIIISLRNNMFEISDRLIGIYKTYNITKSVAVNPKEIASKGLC
UniProt Q13485: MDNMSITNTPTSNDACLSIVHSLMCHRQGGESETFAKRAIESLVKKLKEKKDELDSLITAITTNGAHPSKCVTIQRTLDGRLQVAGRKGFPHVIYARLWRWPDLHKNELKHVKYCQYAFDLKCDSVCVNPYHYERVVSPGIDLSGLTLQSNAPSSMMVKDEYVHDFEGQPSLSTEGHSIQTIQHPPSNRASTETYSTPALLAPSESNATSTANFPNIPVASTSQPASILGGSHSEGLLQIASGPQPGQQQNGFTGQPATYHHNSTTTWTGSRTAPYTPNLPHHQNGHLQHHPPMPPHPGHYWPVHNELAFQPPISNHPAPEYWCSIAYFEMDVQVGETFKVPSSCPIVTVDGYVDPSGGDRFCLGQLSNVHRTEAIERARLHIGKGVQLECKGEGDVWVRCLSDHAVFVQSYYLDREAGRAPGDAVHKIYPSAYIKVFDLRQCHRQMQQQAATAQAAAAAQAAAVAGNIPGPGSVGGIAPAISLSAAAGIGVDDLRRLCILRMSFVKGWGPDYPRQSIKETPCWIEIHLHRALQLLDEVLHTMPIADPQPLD
UniProt Q9Y6M5: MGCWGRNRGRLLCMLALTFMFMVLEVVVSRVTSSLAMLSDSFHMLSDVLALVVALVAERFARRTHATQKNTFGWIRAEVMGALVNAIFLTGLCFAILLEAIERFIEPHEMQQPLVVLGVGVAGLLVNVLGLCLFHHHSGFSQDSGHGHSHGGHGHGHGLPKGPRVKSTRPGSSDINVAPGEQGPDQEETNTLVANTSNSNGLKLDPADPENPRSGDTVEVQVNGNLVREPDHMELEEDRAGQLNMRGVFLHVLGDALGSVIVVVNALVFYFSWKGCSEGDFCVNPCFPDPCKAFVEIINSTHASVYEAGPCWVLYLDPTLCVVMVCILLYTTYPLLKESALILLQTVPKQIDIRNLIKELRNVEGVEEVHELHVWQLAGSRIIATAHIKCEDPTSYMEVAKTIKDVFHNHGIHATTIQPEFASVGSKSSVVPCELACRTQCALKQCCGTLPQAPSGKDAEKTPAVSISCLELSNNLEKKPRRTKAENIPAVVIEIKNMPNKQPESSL
UniProt O95347, whole entry, looked up: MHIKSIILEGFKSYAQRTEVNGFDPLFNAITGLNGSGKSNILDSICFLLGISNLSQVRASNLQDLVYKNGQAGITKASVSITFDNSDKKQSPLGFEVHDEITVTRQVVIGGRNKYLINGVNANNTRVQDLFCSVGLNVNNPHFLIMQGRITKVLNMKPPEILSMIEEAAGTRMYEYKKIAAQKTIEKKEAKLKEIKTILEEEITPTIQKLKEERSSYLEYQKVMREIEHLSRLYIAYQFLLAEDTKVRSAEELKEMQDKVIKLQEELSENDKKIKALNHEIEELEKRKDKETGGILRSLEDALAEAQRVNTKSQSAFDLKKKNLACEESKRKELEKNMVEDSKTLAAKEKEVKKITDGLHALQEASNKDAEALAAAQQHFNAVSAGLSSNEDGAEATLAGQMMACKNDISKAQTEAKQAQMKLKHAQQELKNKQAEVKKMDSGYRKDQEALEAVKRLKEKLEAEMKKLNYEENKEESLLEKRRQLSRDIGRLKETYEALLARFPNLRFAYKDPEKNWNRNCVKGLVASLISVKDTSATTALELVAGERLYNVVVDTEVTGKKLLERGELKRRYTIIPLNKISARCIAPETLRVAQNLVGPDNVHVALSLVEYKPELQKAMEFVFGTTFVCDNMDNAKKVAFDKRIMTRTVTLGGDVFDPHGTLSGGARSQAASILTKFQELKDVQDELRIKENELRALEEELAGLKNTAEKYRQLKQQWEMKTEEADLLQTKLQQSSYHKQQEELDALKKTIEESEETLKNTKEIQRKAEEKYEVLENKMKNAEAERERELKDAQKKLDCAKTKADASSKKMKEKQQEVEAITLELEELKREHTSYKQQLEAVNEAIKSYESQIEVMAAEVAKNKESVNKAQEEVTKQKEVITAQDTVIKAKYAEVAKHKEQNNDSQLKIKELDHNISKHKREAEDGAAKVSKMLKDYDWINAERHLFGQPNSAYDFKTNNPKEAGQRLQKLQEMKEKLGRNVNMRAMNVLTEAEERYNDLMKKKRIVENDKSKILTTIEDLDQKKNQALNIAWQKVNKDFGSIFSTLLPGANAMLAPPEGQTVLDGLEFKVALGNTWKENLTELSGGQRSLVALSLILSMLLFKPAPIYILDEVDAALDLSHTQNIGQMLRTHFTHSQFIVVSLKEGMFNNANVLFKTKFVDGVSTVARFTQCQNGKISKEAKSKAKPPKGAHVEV
UniProt Q9HAU4, whole entry, looked up: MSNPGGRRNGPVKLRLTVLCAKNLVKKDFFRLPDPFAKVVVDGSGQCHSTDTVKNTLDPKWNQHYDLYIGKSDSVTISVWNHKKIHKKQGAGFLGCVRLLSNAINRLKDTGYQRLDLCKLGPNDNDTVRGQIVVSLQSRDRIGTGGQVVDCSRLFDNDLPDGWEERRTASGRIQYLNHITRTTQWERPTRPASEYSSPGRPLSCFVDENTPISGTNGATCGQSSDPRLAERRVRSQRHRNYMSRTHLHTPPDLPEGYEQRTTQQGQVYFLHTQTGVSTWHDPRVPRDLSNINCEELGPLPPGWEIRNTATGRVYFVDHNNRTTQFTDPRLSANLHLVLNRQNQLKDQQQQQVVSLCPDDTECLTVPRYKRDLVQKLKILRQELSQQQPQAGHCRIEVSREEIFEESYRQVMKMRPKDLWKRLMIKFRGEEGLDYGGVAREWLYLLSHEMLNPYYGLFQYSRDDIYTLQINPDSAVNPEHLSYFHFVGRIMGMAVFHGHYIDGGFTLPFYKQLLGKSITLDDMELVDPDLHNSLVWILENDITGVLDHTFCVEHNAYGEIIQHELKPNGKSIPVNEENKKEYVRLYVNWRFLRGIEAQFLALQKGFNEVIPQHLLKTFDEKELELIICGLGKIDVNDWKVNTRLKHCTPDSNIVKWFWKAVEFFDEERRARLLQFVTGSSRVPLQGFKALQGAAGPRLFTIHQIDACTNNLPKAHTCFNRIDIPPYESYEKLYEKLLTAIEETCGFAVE

Target	probe-labelled cysteine peptide fold change (10 µM)	probe-labelled cysteine peptide fold change (50 µM)
SMCR8_Q8TEV9_644_DNSCEGFPAYELDPSHLLASR (UniProt Q8TEV9)	0.161	-0.199
SNRNP200_O75643_1731_FLYEPLPVESHLDHCMHDHFNAEIVTK (UniProt O75643)	-0.083	-0.047
SMC1A_Q14683_987_EALIEIDYGDLCEDLK (UniProt Q14683)	0.0851	-0.0807
SMYD3_Q9H7B4_263_DQYCFECDCFR (UniProt Q9H7B4)	-0.0567	0.116
SMARCA2_P51531_399_QEVVACMR (UniProt P51531)	0.112	0.2
SMC4_Q9NTJ3_323_KNHVCQYYIYELQK (UniProt Q9NTJ3)	-0.227	-0.334
SLC9A3R1_O14745_206_IVEVNGVCMEGK (UniProt O14745)	-0.0612	0.0485
SNRNP200_O75643_1278_VVSDRWLSCETQLPVSFR (UniProt O75643)	-0.302	-0.0648
SNRNP40_Q96DI7_168_GPQLVCTGSDDGTVK (UniProt Q96DI7)	-0.0357	-0.0545
SMPD4_Q9NXE4_698_QLPDCIVGEDGLILTPLGR (UniProt Q9NXE4)	-0.163	-0.18
SNAP23_O00161_112_TTWGDGGENSPCNVVSK (UniProt O00161)	-0.228	-0.329
SMAD4_Q13485_127_CDSVCVNPYHYER (UniProt Q13485)	0.000739	0.0905
SMARCAD1_Q9H4L7_407_ILHFLQDASIGELTLIPQCSQK (UniProt Q9H4L7)	0.0673	0.107
SMARCD2_Q92925_405_TACYDIDVEVDDPLK (UniProt Q92925)	-0.0479	-0.158
SLC43A1_O75387_384_DCVDAPTQGTVLGDAR (UniProt O75387)	0.17	0.0451
SND1_Q7KZF4_96_EVCFTIENK (UniProt Q7KZF4)	0.00729	0.0683
SLC9A3R2_Q15599_103_QLTCTEEMAQR (UniProt Q15599)	-0.156	0.169
SMARCA5_O60264_976_ENVYDELRQCIR (UniProt O60264)	-0.194	0.0608
SLU7_O95391_469_EIVNSEECIINEITGEESVK (UniProt O95391)	0.44	0.0302

Target	probe-labelled cysteine peptide fold change (10 µM)	probe-labelled cysteine peptide fold change (50 µM)
SMC4_Q9NTJ3_260_GQTEHDEGMLEYLEDIIGCGR (UniProt Q9NTJ3)	0.0113	-0.135
SNRNP200_O75643_1580_LTAIDILTTCAADIQR (UniProt O75643)	0.135	-0.122
SMG5_Q9UPR3_865_AQSAMSPYLVPDTQALCHHLPVIR (UniProt Q9UPR3)	0.13	0.0263
SNRNP200_O75643_133_DILCGAADEVLAVLK (UniProt O75643)	-0.0841	-0.018
SNRNP200_O75643_1702+1706_CVIMCQGSK (UniProt O75643)	-0.0143	-0.197
SLC30A1_Q9Y6M5_390_CEDPTSYMEVAK (UniProt Q9Y6M5)	-0.0949	-0.165
SMYD5_Q6GMV2_101_LTGKPGQVLPHPELCTVRK (UniProt Q6GMV2)	-0.263	-0.188
SMC2_O95347_800_KLDCAK (UniProt O95347)	-0.0584	0.0695
SMC4_Q9NTJ3_110_RFSCIIGPNGSGK (UniProt Q9NTJ3)	-0.0655	0.163
SMARCC2_Q8TAQ2_486_LNPQEYLTSTACR (UniProt Q8TAQ2)	-0.0315	-0.203
SMNDC1_O75940_214_VGVGTCGIADKPMTQYQDTSK (UniProt O75940)	-0.108	-0.521
SMCHD1_A6NHR9_492_LIPYTSVEDFDWCTPPK (UniProt A6NHR9)	-0.0283	-0.211
SND1_Q7KZF4_440_TCATVTIGGINIAEALVSK (UniProt Q7KZF4)	-0.0184	-0.0325
SND1_Q7KZF4_837_DIQNTQCLLNVEHLSAGCPHVTLQFADSKGDVGLGLVK (UniProt Q7KZF4)	-0.251	-0.464
SNAPC3_Q92966_92_DLDCSLEAAAELR (UniProt Q92966)	-0.125	-0.000743
SLK_Q9H2G2_86_SEEELEDYMVEIDILASCDHPNIVK (UniProt Q9H2G2)	0.428	0.243
SMURF2_Q9HAU4_47_VVVDGSGQCHSTDTVK (UniProt Q9HAU4)	0.116	-0.253
SLX4_Q8IY92_318_CLDEAEK (UniProt Q8IY92)	-0.117	0.0935
SMARCA2_P51531_1016_ICNHPYMFQHIEESFAEHLGYSNGVINGAELYR (UniProt P51531)	-0.0517	-0.116
